# Test results from PubChem BioAssay AID2685 (National Center for Advancing Translational Sciences (NCATS), 2010).
# This is one part of the list. These are further read-outs of the screen, such as a control signal, another cell line or another target. No call is given for them. The list favours compounds with an active or inconclusive main result. The note in brackets gives the kind of curve behind each potency; many fits are weak.
# Experiment: qHTS Assay for Lipid Storage Modulators in Drosophila S3 Cells;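 on cell number change: cells counted by Cell Tracker Red CMTPX staining in the red channel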
# Conditions: BODIPY lipid droplet fluorescence, 18-24 h; for cell number change: measured here: cell count max response, cells fed with added oleic acid
# In short: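 Laser-scanning cytometry quantifies lipid droplet accumulation (500–530 nm total intensity; droplet/cell object ratio) in oleic acid-fed (400 uM added) Drosophila S3 cells treated with a concentration series. 20 uM Triacsin C defined 100% inhibition.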
# [1] = measured here: lipid fluorescence (Fed channel) AC50, cells fed with added oleic acid
# [2] = measured here: cell number channel AC50, cells fed with added oleic acid
smiles,measurement,setting,value
CC(=O)c1ccc(NC(=O)CSCC(=O)Nc2ccc3ccccc3c2)cc1,AC50,[1],"2.31 µM [rising, single point]"
Cc1ccccc1NS(=O)(=O)c1cc2c(cc1C)NC(=O)CO2,cell number change,,-20.2%
same,AC50,[1],"9.2 µM [falling, partial curve]"
CSc1cc(-c2ccc(Cl)cc2)c(C(=O)NC(C)C)s1,cell number change,,19.3%
same,AC50,[1],"32.6 µM [rising, single point]"
CCC(C)c1ccc(N(CC(=O)NC(C)(C)C)C(=O)CNC(=O)c2cccs2)cc1 (stereo not drawn),cell number change,,64.3%
same,AC50,[2],"16.4 µM [rising, partial curve, poor fit]"
CCCCCCCN1C(N(C)C)=NC[C@@H]1Cc1ccccc1,cell number change,,-30.2%
same,AC50,[2],"9.2 µM [falling, partial curve, poor fit]"
Cc1ccc(OCC(=O)N/N=C/c2cn(Cc3ccccc3)c3ccccc23)cc1,cell number change,,-6.83%
Cc1ccc(NC(=O)c2cc([N+](=O)[O-])ccc2N2CCOCC2)cc1S(=O)(=O)N1CCOCC1,cell number change,,-48.4%
same,AC50,[2],"20.6 µM [falling, partial curve]"
COCCNC(=S)N(CCO)Cc1cc2cc3c(cc2[nH]c1=O)OCCO3,cell number change,,-8.73%
same,AC50,[1],"29.1 µM [falling, single point]"
COc1ccccc1CNC(=O)c1ccc(OCc2c(C)noc2C)c(OC)c1,cell number change,,53.6%
same,AC50,[2],"23.1 µM [rising, partial curve, poor fit]"
CC(=O)N1c2ccc(S(=O)(=O)NCC3CCC(C(=O)N4CCC(C)CC4)CC3)cc2CC1C (stereo not drawn),cell number change,,15.3%
same,AC50,[1],"29.1 µM [rising, single point]"
COc1ccc(NC(=O)c2cc(-c3ccco3)on2)cc1OC,cell number change,,30.8%
same,AC50,[2],"11.6 µM [rising, partial curve, poor fit]"
COc1cccc(-n2cnc3cccc(N)c32)c1,cell number change,,5.29%
COCCn1c(SCC(=O)Nc2cc(C(C)(C)C)nn2-c2ccccc2)nc2ccccc2c1=O,cell number change,,-33.3%
same,AC50,[2],"20.6 µM [falling, single point]"
COc1ccc(/C=C2\SC(=S)NC2=O)cc1OS(=O)(=O)c1ccc(NC(C)=O)cc1,cell number change,,3.2%
same,AC50,[2],"5.8 µM [falling, single point]"
CCOC(=O)c1c(N)sn(-c2ccccc2C)c1=S,cell number change,,-8.97%
same,AC50,[1],"4.11 µM [falling, single point]"
O=C1CCC(C(=O)N2CCCCO2)CN1Cc1cccc(C(F)(F)F)c1 (stereo not drawn),cell number change,,6.8%
O=C(CN1C(=O)C2C3C=CC(C3)C2C1=O)N1CCc2ccccc2C1 (stereo not drawn),cell number change,,-26%
same,AC50,[2],"1.64 µM [falling, full curve, poor fit]"
COc1cccc(CN2CC(C(=O)N3CCCCCC3)CCC2=O)c1 (stereo not drawn),cell number change,,7.62%
same,AC50,[1],"0.0058 µM [rising, full curve, poor fit]"
O=C(CN1CCc2ccccc2C1)Nc1ccccc1N1CCCCCC1,cell number change,,-40%
same,AC50,[2],"32.6 µM [falling, single point]"
same,AC50,[1],"0.411 µM [rising, full curve]"
C=C(C)CNC(=S)Nc1nc2c(cc1C(=O)OCC)CCCC2,cell number change,,31.7%
same,AC50,[2],"7.31 µM [rising, partial curve]"
same,AC50,[1],"3.26 µM [rising, single point]"
CCCCOc1ccc(OCCNC(=O)c2ccco2)cc1,cell number change,,-5.71%
COc1ccc(-n2nc(C(=O)NCCCN3CCOCC3)c3ccccc3c2=O)c(OC)c1,cell number change,,5.07%
same,AC50,[1],"29.1 µM [falling, single point]"
Cc1ccccc1-n1c(SC/C(O)=C(\C#N)c2nc3ccccc3[nH]2)nnc1-c1ccncc1,cell number change,,32.4%
same,AC50,[2],"0.0291 µM [rising, full curve, poor fit]"
same,AC50,[1],"9.2 µM [rising, single point]"
Cc1cc(S(=O)(=O)Nc2ccc(C(=O)NCC(c3ccccc3)N(C)C)cc2)ccc1F (stereo not drawn),cell number change,,11.3%
CCOC(=O)/C=C(\C)Sc1cc(O)c2ccccc2c1O,cell number change,,-59.2%
same,AC50,[2],"23.1 µM [falling, single point]"
same,AC50,[1],"16.4 µM [falling, single point]"
Cc1c(C(=O)OCC(=O)NC2CCCCC2)oc2ccccc12,cell number change,,6.83%
same,AC50,[1],"0.82 µM [rising, full curve, poor fit]"
O=C(Cc1ccccc1Cl)Nc1ccc(S(=O)(=O)Nc2nccs2)cc1,cell number change,,19.2%
same,AC50,[1],"31.6 µM [rising, partial curve, poor fit]"
CC(C)N(CCCNC(=O)Cn1ncc2c([nH]c3ccccc32)c1=O)Cc1ccccc1,cell number change,,6.1%
same,AC50,[1],"29.1 µM [rising, single point]"
COc1ccc(C)cc1NC(=O)c1ccc2c(c1)C(=O)N(Cc1ccncc1)C2=O,cell number change,,-4.51%
same,AC50,[1],"0.517 µM [falling, single point]"
Clc1ccc(/C=N/Nc2nnc(Cl)c3ccccc23)cc1,cell number change,,-9.27%
same,AC50,[2],"4.11 µM [falling, single point]"
same,AC50,[1],"5.8 µM [falling, single point]"
COc1ccc(NS(=O)(=O)c2ccc(N3CCCC3=O)cc2)cn1,cell number change,,18.7%
same,AC50,[1],"0.517 µM [rising, partial curve, poor fit]"
COc1ccc(Cn2nc(C(=O)O)c3ccccc3c2=O)cc1F,cell number change,,17.9%
CN(C)CCCOc1ccc(Cl)cc1Br,cell number change,,-3.45%
same,AC50,[1],"6.51 µM [rising, single point]"
CC(C)CNC(=O)CCCc1ccccc1,AC50,[1],"18.4 µM [rising, single point]"
OCCCN1CCN(CCCOc2ccccc2-c2ccccc2)CC1,cell number change,,-4.6%
same,AC50,[1],"6.51 µM [rising, single point]"
O=C(/C=C/c1c[nH]c2ccccc12)c1ccccc1,cell number change,,-45.6%
same,AC50,[2],"25.9 µM [falling, single point]"
COc1cc2ccccc2cc1C(=O)Nc1nccs1,cell number change,,-20.7%
same,AC50,[1],"0.146 µM [falling, full curve, poor fit]"
O=S(=O)(Nc1cccc(-n2cnnn2)c1)c1ccc(Cl)cc1,cell number change,,8.73%
Cc1cc(NC(=O)CCC(=O)N(Cc2ccco2)C2(C(=O)NC3CCCC3)CCCCC2C)no1 (stereo not drawn),cell number change,,16.7%
same,AC50,[2],"0.00517 µM [rising, full curve, poor fit]"
O=C(NC1CCCC1)C(c1ccncc1)N(C(=O)c1ccco1)c1ccccc1 (stereo not drawn),cell number change,,-18.1%
same,AC50,[1],"0.58 µM [falling, single point]"
COc1ccccc1/C=C/C=N/Nc1cccc(C(=O)O)c1,cell number change,,-18.1%
CC1CN(C2=CC(=O)CCC2)CC(C)O1 (stereo not drawn),cell number change,,42.9%
COc1ccccc1C(=O)NCC(=O)N1CCN(S(=O)(=O)c2ccccc2C(F)(F)F)CC1,cell number change,,-9.5%
same,AC50,[1],"4.61 µM [falling, partial curve, poor fit]"
O=C(CSc1nncs1)NCCNC(=O)CSc1nncs1,cell number change,,8.02%
same,AC50,[1],"2.06 µM [rising, single point]"
CCc1cccc(CC)c1N1C(=O)c2cc(N3CCOCC3)c([N+](=O)[O-])cc2C1=O,cell number change,,-72.2%
same,AC50,[2],"18.4 µM [falling, partial curve]"
same,AC50,[1],"18.4 µM [falling, partial curve]"
CC(NC(=O)c1cccc(S(=O)(=O)N2CCc3ccccc3C2)c1)c1ccco1 (stereo not drawn),cell number change,,-7.52%
same,AC50,[1],"13 µM [falling, partial curve]"
CN1CCN(C(=O)CSc2nnc(COc3ccccc3)o2)CC1,cell number change,,-11.8%
same,AC50,[1],"35.5 µM [rising, single point]"
Cc1cc(C)c(S(=O)(=O)N2CCC3(CC2)OCCN3S(=O)(=O)c2cccs2)c(C)c1,cell number change,,-14.1%
CC(C)N(Cc1ccccc1)C(=O)c1cnc2n(c1=O)CCS2,AC50,[1],"4.11 µM [falling, single point]"
COc1ccc(-n2nc(C(=O)NCC(=O)NC3CCCCCC3)c3ccccc3c2=O)c(OC)c1,cell number change,,56.3%
same,AC50,[2],"29.1 µM [rising, single point]"
same,AC50,[1],"0.58 µM [rising, single point]"
CC(=O)Nc1ccc(S(=O)(=O)Nc2ccc(-n3cnnn3)cc2)cc1,cell number change,,2.89%
same,AC50,[1],"7.31 µM [rising, partial curve]"
O=C(CSc1ncnc2c1oc1ccccc12)Nc1ccccc1F,cell number change,,21.8%
same,AC50,[1],"2.91 µM [rising, single point]"
C/C(=N\NC(=O)c1csc(C)c1C)c1ccc(Cl)s1,cell number change,,53.7%
same,AC50,[2],"32.6 µM [rising, partial curve]"
same,AC50,[1],"0.164 µM [rising, full curve, poor fit]"
O=C(CC12CC3CC(CC(C3)C1)C2)NCC(=O)N1CCCC1,cell number change,,-7.8%
FC(F)Oc1ccc(NC(=S)NCC2COc3ccccc3O2)cc1 (stereo not drawn),AC50,[1],"0.206 µM [rising, full curve, poor fit]"
CC(C)CC(=O)c1c[nH]c(C(=O)NCc2cccs2)c1,cell number change,,28%
same,AC50,[2],"0.0146 µM [rising, full curve, poor fit]"
same,AC50,[1],"3.66 µM [rising, partial curve]"
COc1ccc(-c2nc(CS(=O)(=O)CC(=O)NCCc3ccc(C)cc3)c(C)o2)cc1,cell number change,,-4.82%
CN(C)S(=O)(=O)c1cccc(NC(=O)Cc2ccsc2)c1,cell number change,,13.2%
Cc1cc(C(F)F)n2nc(C(=O)NCc3ccccc3F)nc2n1,cell number change,,-2.04%
same,AC50,[1],"1.46 µM [rising, partial curve]"
Cc1ccc(-n2c(C)nc3c(cnn3-c3ccc(C)c(C)c3)c2=O)cc1C,cell number change,,33.3%
same,AC50,[2],"13 µM [rising, partial curve]"
same,AC50,[1],"5.8 µM [rising, full curve]"
Cc1nc(-n2ncc(C#N)c2N)c2c3c(sc2n1)CCC3,AC50,[2],"2.06 µM [rising, partial curve]"
same,AC50,[1],"3.26 µM [rising, partial curve]"
O=C(c1ccccc1)c1c2c(cc3sc4ccccc4[n+]13)-c1cccc3cccc-2c13,cell number change,,-46%
same,AC50,[2],"5.8 µM [falling, full curve]"
same,AC50,[1],"1.46 µM [falling, full curve]"

# 7 entries picked at random from those above:
smiles,measurement,setting,value
COc1cc2ccccc2cc1C(=O)Nc1nccs1,AC50,[1],"0.146 µM [falling, full curve, poor fit]"
Cc1cc(C(F)F)n2nc(C(=O)NCc3ccccc3F)nc2n1,AC50,[1],"1.46 µM [rising, partial curve]"
CSc1cc(-c2ccc(Cl)cc2)c(C(=O)NC(C)C)s1,AC50,[1],"32.6 µM [rising, single point]"
COc1cc2ccccc2cc1C(=O)Nc1nccs1,cell number change,,-20.7%
O=C(CSc1nncs1)NCCNC(=O)CSc1nncs1,cell number change,,8.02%
O=C(/C=C/c1c[nH]c2ccccc12)c1ccccc1,cell number change,,-45.6%
COc1ccc(C)cc1NC(=O)c1ccc2c(c1)C(=O)N(Cc1ccncc1)C2=O,cell number change,,-4.51%
